The test system of this data set is IL-10. The experiment in a line: Example 9 Luminex, LPS hPBMCs: IL-10. The data set is classed as cell-based, human. To be noted: Bead IL-10. On the procedure: Treatment Human PBMCs were pretreated with YY-101, YDE-011 and YDE-043 or reference compound; Xiidra® at various concentration (ranging from 1 nM to 100 uM) for 2 h before stimulation. An equal volume of 0.5% DMSO was used as a vehicle control. Then, the cells were treated with LPS at 5 ug/ml. The supernatants from treated cells were harvested at 24 h and placed in a 96 well for Luminex cytokine & chemokine profiling using a Luminex 200 multiplex assay (Luminex; R&D system, USA).
The main study arm with triplicate wells per group in a 24-well plate: • 1. Blank • 2. PBMC: 0.5% DMSO • 3. PBMC+LPS (5 ug/ml) • 4. PBMC+YY-101 100 uM • 5. PBMC+YY-101 10 uM • 6. PBMC+YY-101 1 uM • 7. PBMC+YY-101 0.1 uM • 8. PBMC+YY-101 0.01 uM • 9. PBMC+LPS (5 ug/ml)+Xiidra®100 uM • 10. PBMC+LPS (5 ug/ml)+Xiidra® 10 uM • 11. PBMC+LPS (5 ug/ml)+Xiidra® 1 uM • 12. PBMC+LPS (5 ug/ml)+Xiidra®0.1 uM • 13. PBMC+LPS (5 ug/ml)+Xiidra®0.01 uM • 14. PBMC+LPS (5 ug/ml)+Xiidra®0.001 uM • 15. PBMC+LPS (5 ug/ml)+YY-101 100 uM • 16. PBMC+LPS (5 ug/ml)+YY-101 10 uM • 17. PBMC+LPS (5 ug/ml)+YY-101 1 uM • 18. PBMC+LPS (5 ug/ml)+YY-101 0.1 uM • 19. PBMC+LPS (5 ug/ml)+YY-101 0.01 uM • 20. PBMC+LPS (5 ug/ml)+YY-101 0.001 uM • 21. PBMC+LPS (5 ug/ml)+YDE-011 100 uM • 22. PBMC+LPS (5 ug/ml)+YDE-011 10 uM • 23. PBMC+LPS (5 ug/ml)+YDE-011 1 uM • 24. PBMC+LPS (5 ug/ml)+YDE-011 0.1 uM • 25. PBMC+LPS (5 ug/ml)+YDE-011 0.01 uM • 26. PBMC+LPS (5 ug/ml)+YDE-011 0.001 uM • 27. PBMC+LPS (5 ug/ml)+YDE-043 100 uM • 28. PBMC+LPS (5 ug/ml)+YDE-043 10 uM • 29. PBMC+LPS (5 ug/ml)+YDE-043 1 uM • 30. PBMC+LPS (5 ug/ml)+YDE-043 0.1 uM • 31. PBMC+LPS (5 ug/ml)+YDE-043 0.01 uM • 32. PBMC+LPS (5 ug/ml)+YDE-043 0.001 uM
Multiplex assay was used to measure 30 cytokines and chemokines. The 1:2, 1:10 and 1:200 diluted cell supernatant and serial dilution of the standard were dispensed into a 96 well plate at 50 ul/well. Then, the pre-mixed cocktail of antibody-coated magnetic beads was dispensed at 50 ul/well and incubated at room temperature for 2 h in a horizontal orbital microplate shaker at 800±500 rpm. The beads were washed using a magnetic device to prevent loss. The biotin-antibody was dispensed in 50 ul of each well and incubated at room temperature for 1 h in a shaker at 800±500 rpm. After washing, streptavidin-PE was added at 50 ul/well and incubated at room temperature for 30 min in a shaker under the same conditions. Finally, after washing, wash buffer (100 ul/well) was added to the plate and incubated in a shaker for 2 min. The Luminex™ 200 setting were set according to the manufacturer's protocol. The data was calculated with a standard five-parameter logistic nonlinear regression analysis of the data (xPonent software 4.2, USA). The levels of cytokine/chemokine are normalized to the live cell counts (1×10^5 cells/mL) and presented as concentrations per mL (pg/mL or ng/mL).

The mark [1] stands for this setting: PBMC + LPS(5 ug/ml) + test article 0.001 uM, Mean.
Where [2] appears, read: PBMC + LPS(5 ug/ml) + test article 0.001 uM, single replicates.
The mark [3] stands for this setting: PBMC + LPS(5 ug/ml) + test article 0.01 uM, Mean.
Setting [4] is: PBMC + LPS(5 ug/ml) + test article 0.01 uM, single replicates.
[5] abbreviates: PBMC + LPS(5 ug/ml) + test article 0.1 uM, Mean.
The mark [6] stands for this setting: PBMC + LPS(5 ug/ml) + test article 0.1 uM, single replicates.
Where [7] appears, read: PBMC + LPS(5 ug/ml) + test article 1 uM, Mean.
Where [8] appears, read: PBMC + LPS(5 ug/ml) + test article 1 uM, single replicates.
[9] abbreviates: PBMC + LPS(5 ug/ml) + test article 10 uM, Mean.
The mark [10] stands for this setting: PBMC + LPS(5 ug/ml) + test article 10 uM, single replicates.
The mark [11] stands for this setting: PBMC + LPS(5 ug/ml) + test article 100 uM, Mean.
Where [12] appears, read: PBMC + LPS(5 ug/ml) + test article 100 uM, single replicates.

“And” between values parts separate entries of the source, which are not always exact repeats. Identical values can stand only once. Where a SMILES comes first, the peptide text is derived from it. [ ]: non-standard residue; d: D form. Hyp = O=C(O)[C@@H]1C[C@@H](O)CN1

Regarding `CC(C)C[C@H](NC(=O)[C@H](CCC(N)=O)NC(=O)CNC(=O)[C@@H]1C[C@@H](O)CN1)C(=O)NCC(=O)O` [YDE-043] (H-[Hyp]GQLG-OH; N-terminus and C-terminus assumed), the MFI under setting [1] amounted to 173.4; the MFI under setting [2] was 194.3 and 168.3 and 157.8; the MFI under setting [3] came to 200.8; the MFI under setting [4] was 200.8 and 213.3 and 188.3; the MFI under setting [5] is 184.9; the MFI under setting [6] is 190.3 and 178.3 and 186.3. The MFI runs as follows: under setting [7], 188.6; under setting [8], 189.3 and 178.3 and 198.3; under setting [9], 167.9; under setting [10], 182.3 and 153.8 and 167.8; under setting [11], 49.3; under setting [12], 47.8 and 50.8.

As to `CC(C)C[C@H](NC(=O)CNC(=O)[C@H](CC(=O)O)NC(=O)[C@H](CCC(N)=O)NC(=O)CNC(=O)[C@@H]1C[C@@H](O)CN1)C(=O)N[C@@H](C)C(=O)NCC(=O)N1CCC[C@H]1C(=O)N[C@@H](CCCCN)C(=O)O` [YY-101] (H-[Hyp]GQDGLAGPK-OH; N-terminus and C-terminus assumed), the MFI was 298.8 under setting [1]; 315.3 and 305.8 and 275.3 under setting [2]; 314.1 under setting [3]; 308.8 and 313.8 and 319.8 under setting [4]; 273.6 under setting [5]; 259.8 and 283.8 and 277.3 under setting [6]. The MFI was 329.3 under setting [7]; 357.3 and 302.8 and 327.8 under setting [8]; 295.3 under setting [9]; 287.8 and 342.3 and 255.8 under setting [10]; 86.1 under setting [11]; 86.8 and 83.8 and 87.8 under setting [12]. Further, the MFI is 1.3 (PBMC + test article 0.01 uM, no LPS, Mean); 0.8 and 1.8 (PBMC + test article 0.01 uM, no LPS, single replicates); 1.3 (PBMC + test article 0.1 uM, no LPS, Mean); 0.8 and 1.8 (PBMC + test article 0.1 uM, no LPS, single replicates); 0.8 (PBMC + test article 1 uM, no LPS, Mean); 0.8 (PBMC + test article 1 uM, no LPS, single replicates). Besides, the MFI is, setting by setting: (PBMC + test article 10 uM, no LPS, Mean) 4.5; (PBMC + test article 10 uM, no LPS, single replicates) 7.8 and 1.3; (PBMC + test article 100 uM, no LPS, Mean) 1.3; (PBMC + test article 100 uM, no LPS, single replicates) 2.8 and −0.3.

Consider `CC(C)C[C@H](NC(=O)CNC(=O)[C@H](CC(C)C)NC(=O)[C@H](CCC(N)=O)NC(=O)CNC(=O)[C@@H]1C[C@@H](O)CN1)C(=O)N[C@@H](C)C(=O)NCC(=O)N1CCC[C@H]1C(=O)N[C@@H](CCCCN)C(=O)O` [YDE-011] (H-[Hyp]GQLGLAGPK-OH), for which the MFI was 172.1 under setting [1]; 163.3 and 179.3 and 173.8 under setting [2]; 181.9 under setting [3]; 192.8 and 186.8 and 166.3 under setting [4]; 175.6 under setting [5]; 168.8 and 181.8 and 176.3 under setting [6]. Also, the MFI is 179.6 under setting [7]; 179.3 and 182.8 and 176.8 under setting [8]; 169.9 under setting [9]; 168.8 and 166.3 and 174.8 under setting [10]; 50.4 under setting [11]; 43.8 and 51.8 and 55.8 under setting [12].

These data come from patent publication US20230146455A1 (Yuyu Pharma, Inc., priority 2020, published 2023).
